Measured values reported in US7189506B1, “DNA binding compound-mediated molecular switch system” (Genelabs Technologies, Inc.).
For at least one entry, the source does not settle the construct or the ends of the probe. For part of these data: Results from cells or extracts need not show a direct contact.

Chains of the proteins cited; added tags and fusions are not shown. A line that says so, or that is headed by a name, gives the form on record, which may keep a tag or linker.
Thioredoxin-p50 NF-kB fusion (p50C) (Homo sapiens), one chain, as listed by the source: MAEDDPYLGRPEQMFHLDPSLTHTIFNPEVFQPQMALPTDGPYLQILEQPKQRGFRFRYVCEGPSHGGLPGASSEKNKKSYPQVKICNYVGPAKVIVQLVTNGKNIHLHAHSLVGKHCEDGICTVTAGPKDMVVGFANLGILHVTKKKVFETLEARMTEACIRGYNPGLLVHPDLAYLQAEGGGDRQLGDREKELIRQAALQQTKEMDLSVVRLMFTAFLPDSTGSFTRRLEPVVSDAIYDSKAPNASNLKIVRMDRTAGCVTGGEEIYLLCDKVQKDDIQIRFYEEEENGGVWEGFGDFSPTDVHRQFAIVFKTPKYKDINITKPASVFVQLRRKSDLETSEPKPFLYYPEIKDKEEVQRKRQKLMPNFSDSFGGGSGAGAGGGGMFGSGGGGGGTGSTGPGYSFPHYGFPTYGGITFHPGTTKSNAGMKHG

Assays:
[1] = test system: Thioredoxin-p50 NF-kB fusion (p50C) (Homo sapiens); experiment: EMSA; conditions: purified recombinant protein, protein details: Thioredoxin fusion (Genelabs Technologies), label: 32P
[2] = test system: HNF3 (hepatocyte nuclear factor 3); experiment: EMSA; conditions: protein source not stated, protein in an extract

Question: Does “CGACCGTGCTCGAGTTAACGGGATTTTCCAAAAACGATCGGACTGGACTC (double strand) [JF102]” bind ([1]; displaced by 21x more efficiently than by distamycin)?
Answer: binds

Question: Does “CGACCGTGCTCGAGAAATTGGGATTTTCCAAAAACGATCGGACTGGACTC (double strand) [JF103]” bind ([1]; displaced by 21x)?
Answer: binds

Question: Does “ACCTTGAGGCATACTTCAAAGACTGTTTATTTAAGGACTGGGAGGAGTTGG (double strand) [HNF3Rds3]” bind ([2]; slightly displaced by GL046732)?
Answer: binds

Question: Does “ACCTTGAGGCATACTTCAAAGACTGTTTATTTTAATAACGGGAGGAGTTGG (double strand) [HNF3Rds2]” bind [2]?
Answer: binds

Question: Does “CGACCGTGCTCGAGTTAACGGGACTTTCCAAAAACGATCGGACTGGACTC (double strand) [JF101]” bind ([1]; displaced by 21x, less efficiently than IL-6 type site)?
Answer: binds

Question: Does “ACCTTGAGGCATACTTCAAAGACTGTTGATTTAGCGAATAAGAGGAGTTGG (double strand) [HNF3Rds1]” bind ([2]; displaced by GL046732, displacement EC50 300-800 nM)?
Answer: binds
